This assay deals with GST-tagged Gm4951 (mouse) (UniProt Q3UED7). Put plainly: pull-down; GST or GST-Gm4951 on glutathione agarose beads incubated with eluted purified 3xFlag-Hsd17b13 in GST pull-down buffer (20 mM Tris-Cl pH 8.0, 200 mM NaCl, 1 mM EDTA, 0.5% Nonidet P-40, PMSF), 4 °C, 2 h; Flag immunoblot; both purified. (In western blotting, separated proteins are transferred to a membrane and probed.)

By UniProt entry, the sequences of proteins in these tests, tags left out. Where a name states a change or a piece, a line headed by the entry shows the natural chain unless it says otherwise.
UniProt Q3UED7: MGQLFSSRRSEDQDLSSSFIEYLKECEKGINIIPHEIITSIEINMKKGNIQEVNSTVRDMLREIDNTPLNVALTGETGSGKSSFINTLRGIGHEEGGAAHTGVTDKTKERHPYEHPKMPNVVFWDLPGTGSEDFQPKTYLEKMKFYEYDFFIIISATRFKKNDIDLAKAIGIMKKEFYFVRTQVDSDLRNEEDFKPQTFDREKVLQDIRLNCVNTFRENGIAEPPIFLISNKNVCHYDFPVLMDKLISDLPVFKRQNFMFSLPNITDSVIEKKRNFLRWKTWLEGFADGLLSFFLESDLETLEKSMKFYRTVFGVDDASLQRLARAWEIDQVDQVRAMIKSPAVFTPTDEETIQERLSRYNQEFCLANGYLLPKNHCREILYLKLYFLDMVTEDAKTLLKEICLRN

These are yes or no findings as the source states them, for the method shown. A result given as binding can be weak or reduced; the word gives no strength. Sequences can lack the tags named with a protein.

B1: 3xFlag-tagged Hsd17b13 (mouse) from 293T cells (protein, UniProt Q8VCR2-2 20-300)
chain: ESLVKFFIPRRRKSVTGQTVLITGAGHGIGRLTAYEFAKQKSRLVLWDINKRGVEETADKCRKLGAVVHVFVVDCSNRAEIYNSVDQVKREVGDVEIVVNNAGAIYPADLLSAKDEEITKTFEVNILGHFWIIKALLPSMLRRNSGHIVTVASVCGHGVIPYLIPYCSSKFAAVGFHRALTAELDTLGKTGIQTSCLCPVFVNTGFTKNPSTRLWPVLEPEEVARSLINGILTNKKMIFVPSYINISLILEKFLPERALKAISRIQNIQFEAIVGHKTKMK
B1: the binding result is “binds”.

Source of the values: article PMC9288484.
